Assay results as given in the supplement of paper PMC11732987, “Enantioselective OTUD7B fragment discovery through chemoproteomics screening and high-throughput optimisation” (Communications Chemistry, 2025).
Some of the results follow. The data scatter; read single values as rough.

By UniProt entry, the sequences of proteins in these tests, tags left out. Where a name states a change or a piece, a line headed by the entry shows the natural chain unless it says otherwise.
UniProt Q9NVE7: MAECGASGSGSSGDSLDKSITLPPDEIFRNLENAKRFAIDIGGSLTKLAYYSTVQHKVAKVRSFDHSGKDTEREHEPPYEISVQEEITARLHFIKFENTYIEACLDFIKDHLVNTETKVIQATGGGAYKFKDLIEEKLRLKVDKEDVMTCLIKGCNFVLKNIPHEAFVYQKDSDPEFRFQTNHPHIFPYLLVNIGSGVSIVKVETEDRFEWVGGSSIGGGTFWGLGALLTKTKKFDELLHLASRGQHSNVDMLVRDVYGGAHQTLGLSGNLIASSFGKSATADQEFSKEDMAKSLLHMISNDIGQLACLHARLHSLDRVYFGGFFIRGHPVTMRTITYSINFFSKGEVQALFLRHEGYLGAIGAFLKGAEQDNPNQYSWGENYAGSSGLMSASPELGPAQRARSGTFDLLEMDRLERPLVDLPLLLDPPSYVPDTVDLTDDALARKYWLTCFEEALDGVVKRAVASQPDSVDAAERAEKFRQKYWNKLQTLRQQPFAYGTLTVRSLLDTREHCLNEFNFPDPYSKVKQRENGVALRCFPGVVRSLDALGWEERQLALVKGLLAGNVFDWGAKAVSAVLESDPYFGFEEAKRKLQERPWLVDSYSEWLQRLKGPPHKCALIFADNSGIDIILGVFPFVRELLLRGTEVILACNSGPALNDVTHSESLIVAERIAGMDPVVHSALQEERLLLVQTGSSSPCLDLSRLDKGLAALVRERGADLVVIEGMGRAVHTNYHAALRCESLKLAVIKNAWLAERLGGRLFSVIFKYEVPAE
UniProt Q9H792: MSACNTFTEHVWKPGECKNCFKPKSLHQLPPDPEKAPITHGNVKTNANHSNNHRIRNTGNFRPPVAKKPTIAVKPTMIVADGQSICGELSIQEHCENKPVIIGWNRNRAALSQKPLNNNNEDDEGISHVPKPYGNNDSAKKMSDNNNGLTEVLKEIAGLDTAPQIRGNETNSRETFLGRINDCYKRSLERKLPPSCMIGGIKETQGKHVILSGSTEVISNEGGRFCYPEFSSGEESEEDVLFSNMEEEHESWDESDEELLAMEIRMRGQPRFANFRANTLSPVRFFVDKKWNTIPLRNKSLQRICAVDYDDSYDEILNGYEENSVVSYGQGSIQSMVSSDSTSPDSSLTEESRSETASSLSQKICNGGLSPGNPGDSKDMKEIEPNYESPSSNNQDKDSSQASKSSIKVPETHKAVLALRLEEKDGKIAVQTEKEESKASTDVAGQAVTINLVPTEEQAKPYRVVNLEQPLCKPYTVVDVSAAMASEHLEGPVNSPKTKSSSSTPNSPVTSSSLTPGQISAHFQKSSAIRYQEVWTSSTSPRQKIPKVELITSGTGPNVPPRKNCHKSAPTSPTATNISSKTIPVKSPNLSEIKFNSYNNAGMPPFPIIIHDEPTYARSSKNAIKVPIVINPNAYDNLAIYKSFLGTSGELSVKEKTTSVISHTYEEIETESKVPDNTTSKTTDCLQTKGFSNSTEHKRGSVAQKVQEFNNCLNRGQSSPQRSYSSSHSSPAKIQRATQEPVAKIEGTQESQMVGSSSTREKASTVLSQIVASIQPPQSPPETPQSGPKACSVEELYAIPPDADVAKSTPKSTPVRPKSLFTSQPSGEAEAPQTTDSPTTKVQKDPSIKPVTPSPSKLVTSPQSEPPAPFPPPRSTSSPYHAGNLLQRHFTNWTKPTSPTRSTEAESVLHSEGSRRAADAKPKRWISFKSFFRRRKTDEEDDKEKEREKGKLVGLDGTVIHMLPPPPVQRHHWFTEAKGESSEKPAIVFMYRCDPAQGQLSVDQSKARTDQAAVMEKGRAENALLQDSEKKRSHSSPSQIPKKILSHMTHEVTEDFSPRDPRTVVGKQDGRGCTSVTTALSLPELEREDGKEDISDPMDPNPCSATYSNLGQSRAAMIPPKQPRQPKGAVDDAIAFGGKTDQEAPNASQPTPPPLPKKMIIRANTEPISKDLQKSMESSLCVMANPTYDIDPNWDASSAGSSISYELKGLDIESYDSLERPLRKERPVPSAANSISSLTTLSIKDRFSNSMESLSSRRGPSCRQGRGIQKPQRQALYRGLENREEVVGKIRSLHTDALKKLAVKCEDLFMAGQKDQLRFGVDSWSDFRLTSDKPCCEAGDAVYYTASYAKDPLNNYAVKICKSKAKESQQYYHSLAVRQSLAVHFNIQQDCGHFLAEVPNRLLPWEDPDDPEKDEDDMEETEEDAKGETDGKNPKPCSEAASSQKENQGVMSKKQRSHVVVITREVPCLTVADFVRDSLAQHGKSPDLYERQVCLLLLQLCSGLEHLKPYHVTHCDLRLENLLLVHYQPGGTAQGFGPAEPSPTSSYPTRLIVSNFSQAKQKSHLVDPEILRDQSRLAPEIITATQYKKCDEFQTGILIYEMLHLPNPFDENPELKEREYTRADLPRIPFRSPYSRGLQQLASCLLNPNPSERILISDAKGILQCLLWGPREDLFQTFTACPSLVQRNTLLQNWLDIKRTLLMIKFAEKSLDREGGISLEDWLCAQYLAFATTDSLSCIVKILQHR
UniProt Q14690: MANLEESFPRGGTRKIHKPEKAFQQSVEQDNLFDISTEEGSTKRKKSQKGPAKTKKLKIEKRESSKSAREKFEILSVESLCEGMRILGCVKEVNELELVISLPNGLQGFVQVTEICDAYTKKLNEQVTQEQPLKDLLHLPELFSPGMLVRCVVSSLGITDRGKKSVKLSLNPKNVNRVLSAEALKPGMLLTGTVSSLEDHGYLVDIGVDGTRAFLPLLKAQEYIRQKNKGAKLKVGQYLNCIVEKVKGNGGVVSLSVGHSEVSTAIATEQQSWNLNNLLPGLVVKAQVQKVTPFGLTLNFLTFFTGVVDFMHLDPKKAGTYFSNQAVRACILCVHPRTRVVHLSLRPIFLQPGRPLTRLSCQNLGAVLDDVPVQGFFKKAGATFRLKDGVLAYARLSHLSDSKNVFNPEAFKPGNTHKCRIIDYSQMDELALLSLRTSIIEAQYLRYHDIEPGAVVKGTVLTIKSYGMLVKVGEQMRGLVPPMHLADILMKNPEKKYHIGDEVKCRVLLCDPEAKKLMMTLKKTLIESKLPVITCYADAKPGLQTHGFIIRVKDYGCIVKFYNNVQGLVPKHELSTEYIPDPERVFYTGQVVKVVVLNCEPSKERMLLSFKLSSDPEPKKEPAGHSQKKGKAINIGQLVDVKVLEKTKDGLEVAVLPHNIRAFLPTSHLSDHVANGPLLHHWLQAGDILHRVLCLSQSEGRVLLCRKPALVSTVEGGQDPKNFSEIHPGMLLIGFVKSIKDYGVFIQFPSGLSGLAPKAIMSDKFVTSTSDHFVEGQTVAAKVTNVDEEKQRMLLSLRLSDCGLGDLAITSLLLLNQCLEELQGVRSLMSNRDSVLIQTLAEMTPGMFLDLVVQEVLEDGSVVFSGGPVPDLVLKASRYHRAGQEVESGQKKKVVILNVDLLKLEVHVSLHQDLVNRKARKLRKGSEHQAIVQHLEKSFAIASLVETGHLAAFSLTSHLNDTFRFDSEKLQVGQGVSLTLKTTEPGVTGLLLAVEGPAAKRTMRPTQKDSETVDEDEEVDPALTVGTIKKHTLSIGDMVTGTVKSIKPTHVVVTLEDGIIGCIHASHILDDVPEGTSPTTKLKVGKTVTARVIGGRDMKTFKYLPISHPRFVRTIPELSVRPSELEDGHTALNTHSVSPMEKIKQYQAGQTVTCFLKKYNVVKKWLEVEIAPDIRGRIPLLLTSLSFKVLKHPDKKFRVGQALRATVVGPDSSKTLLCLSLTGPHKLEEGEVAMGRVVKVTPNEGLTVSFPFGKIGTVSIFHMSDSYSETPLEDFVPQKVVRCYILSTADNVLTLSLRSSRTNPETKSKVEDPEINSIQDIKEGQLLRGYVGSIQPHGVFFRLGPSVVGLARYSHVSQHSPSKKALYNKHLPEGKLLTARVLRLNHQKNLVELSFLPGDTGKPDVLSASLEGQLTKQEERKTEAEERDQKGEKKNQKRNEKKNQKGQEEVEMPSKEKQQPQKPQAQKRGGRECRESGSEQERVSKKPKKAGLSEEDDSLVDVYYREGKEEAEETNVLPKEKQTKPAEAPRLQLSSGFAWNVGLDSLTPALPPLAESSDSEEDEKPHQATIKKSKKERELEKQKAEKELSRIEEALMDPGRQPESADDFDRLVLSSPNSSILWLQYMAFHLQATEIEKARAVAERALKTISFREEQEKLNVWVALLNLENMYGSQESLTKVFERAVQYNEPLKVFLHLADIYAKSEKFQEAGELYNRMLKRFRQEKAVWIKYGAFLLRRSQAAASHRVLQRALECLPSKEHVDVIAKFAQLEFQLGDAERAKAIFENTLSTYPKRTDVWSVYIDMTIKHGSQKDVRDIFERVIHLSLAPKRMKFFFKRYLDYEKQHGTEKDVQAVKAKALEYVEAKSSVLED
UniProt Q13177, whole entry, looked up: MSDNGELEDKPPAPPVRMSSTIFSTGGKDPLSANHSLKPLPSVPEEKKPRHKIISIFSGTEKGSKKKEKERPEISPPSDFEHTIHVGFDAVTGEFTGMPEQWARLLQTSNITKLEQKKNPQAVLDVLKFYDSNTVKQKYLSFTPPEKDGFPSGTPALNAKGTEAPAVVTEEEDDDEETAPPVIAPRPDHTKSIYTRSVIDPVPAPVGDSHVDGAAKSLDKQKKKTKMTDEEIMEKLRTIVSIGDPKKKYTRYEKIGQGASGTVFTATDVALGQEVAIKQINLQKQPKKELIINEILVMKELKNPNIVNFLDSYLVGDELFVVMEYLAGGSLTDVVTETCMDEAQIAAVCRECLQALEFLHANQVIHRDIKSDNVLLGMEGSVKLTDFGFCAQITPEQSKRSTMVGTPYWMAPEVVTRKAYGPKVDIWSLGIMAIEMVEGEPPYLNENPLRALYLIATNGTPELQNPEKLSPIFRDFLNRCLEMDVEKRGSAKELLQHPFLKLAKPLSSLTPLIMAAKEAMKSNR

What was measured:
[1] = compound: ClCC(=O)N[C@@H]1CCCc2ccccc12; experiment: log2 mean competition ratio of IA-DTB cysteine labelling (DMSO/compound) (log2 ratio); higher = stronger cysteine engagement by compound; conditions: treatment time: 4 h, cell line lysate: HEK293T
Description: (§1)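 IA-DTB competitive cysteine chemoproteomics in HEK293T RIPA lysate. Lysates were treated with compound 29 or 30 at 50 or 200 µM for 4 h, then IA-DTB (500 µM, 1 h), trypsin-digested, NeutrAvidin-enriched and analysed by diaPASEF. Competition ratio = intensity DMSO / intensity compound (n=4 treated, n=64 DMSO); binding: mean log2 CR ≥ 1 and p ≤ 0.05 plus QC filters. Target is the cysteine site.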

[2] = compound: ClCC(=O)N[C@H]1CCCc2ccccc12; experiment: as above; conditions: treatment time: 4 h, cell line lysate: HEK293T
Description: as §1

Target	log2 mean competition ratio ([1]; 50 µM)	log2 mean competition ratio ([1]; 200 µM)	log2 mean competition ratio ([2]; 50 µM)	log2 mean competition ratio ([2]; 200 µM)
PGM3 C212	0.0454	-0.166	-0.112	-0.0905
PANK4 C4 (UniProt Q9NVE7)	-0.0357	-0.02	-0.208	0.0277
PEAK1 C993 (UniProt Q9H792)	0.0685	-0.27	0.318	-0.261
PDCD11 C241 (UniProt Q14690)	-0.024	-0.139	-0.287	-0.133
PAK2 C480 (UniProt Q13177)	-0.0574	0.0965	-0.286	-0.00325
PAPOLA C118	-0.163	-0.208	-0.242	-0.0915
